Results are given in words; binding and its absence hold for the method and conditions named. For some of these results: In cells and extracts the contact can be indirect. Some entries that bind do so weakly or less than the wild type.
B1: GFP-MYO1C-790-1028 (MYO1C tail domain, also known as the cargo domain) (domain or fragment, mouse, UniProt Q9WTI7-2 790-1028, looked up)
chain: PRNVLDTSWPTPPPALREASELLRELCMKNMVWKYCRSISPEWKQQLQQKAVASEIFKGKKDNYPQSVPRLFISTRLGTEEISPRVLQSLGSEPIQYAVPVVKYDRKGYKPRPRQLLLTPSAVVIVEDAKVKQRIDYANLTGISVSSLSDSLFVLHVQREDNKQKGDVVLQSDHVIETLTKTALSADRVNNININQGSITFAGGPGRDGIIDFTSGSELLITKAKNGHLAVVAPRLNSR

Sequences of proteins named here, by UniProt entry; tags and fusion partners are left off.
UniProt P08100: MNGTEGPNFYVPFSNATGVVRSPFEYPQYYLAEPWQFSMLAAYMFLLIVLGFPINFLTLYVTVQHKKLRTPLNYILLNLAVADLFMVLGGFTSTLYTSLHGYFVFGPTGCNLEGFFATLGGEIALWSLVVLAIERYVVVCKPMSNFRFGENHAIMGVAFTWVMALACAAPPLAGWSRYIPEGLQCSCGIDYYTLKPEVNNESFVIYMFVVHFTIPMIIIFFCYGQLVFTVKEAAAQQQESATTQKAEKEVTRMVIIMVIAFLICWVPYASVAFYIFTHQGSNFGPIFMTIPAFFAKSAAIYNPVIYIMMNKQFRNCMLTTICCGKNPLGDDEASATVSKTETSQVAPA
UniProt P15409: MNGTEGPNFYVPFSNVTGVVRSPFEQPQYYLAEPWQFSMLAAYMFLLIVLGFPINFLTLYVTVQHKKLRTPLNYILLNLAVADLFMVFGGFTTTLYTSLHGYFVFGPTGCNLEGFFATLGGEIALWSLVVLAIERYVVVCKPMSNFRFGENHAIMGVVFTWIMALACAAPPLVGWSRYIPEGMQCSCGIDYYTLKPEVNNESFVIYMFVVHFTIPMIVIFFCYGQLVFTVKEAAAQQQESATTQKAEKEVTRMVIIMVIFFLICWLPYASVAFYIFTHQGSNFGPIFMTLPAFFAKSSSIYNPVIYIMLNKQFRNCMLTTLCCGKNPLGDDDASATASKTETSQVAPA

Experiments:
[1] = biological target: Rhodopsin overexpressed in HEK293 cells (pcDNA3 rod opsin construct) (UniProt P08100); test: far-Western, overlay or dot blot
[2] = biological target: Rhodopsin (endogenous in mouse retina) (mouse (endogenous in retina)) (UniProt P15409); test: far-Western, overlay or dot blot
[3] = biological target: Rhodopsin (endogenous in mouse retina) (mouse (endogenous in retina)) (UniProt P15409); test: co-IP

Molecule | binding [1] | binding [2] | binding [3]
Purified recombinant full-length mouse MYO1C (from UniProt Q9WTI7 1-1063) | binds | binds | –
MYO1C (unconventional myosin, endogenous in mouse retina) (from UniProt Q9WTI7 1-1063) | – | – | binds
B1 | binds | – | –
